Among all 580,000 compounds or so, about 6,100 (1.1%) were called active. The inconclusive results got no clear call from the source; some entries with a clear call stand among them for comparison. Calls follow the shape of the dose curve; as a rule, active = well fitted inhibition curve with a large enough effect; inconclusive = small, poorly fitted or top-dose-only effect, or another doubt; inactive = no such curve, though single readings can be large or run the other way. Potencies of inconclusive entries are doubtful fits and often do not repeat.
Molecular target: Polyunsaturated fatty acid lipoxygenase ALOX12 (Homo sapiens) (UniProt P18054)
Test: Primary qHTS assay for inhibitors of human arachidonate 12S-lipoxygenase (ALOX12): Round 2
Conditions: purified 12hLO, xylenol orange hydroperoxide absorbance; activity change, negative = inhibition: at 108 µM (top of the series) unless noted
How it was run: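 Purified human 12hLO at 150 nM in 25 mM Hepes, 0.01% Triton X-100, pH 7.0, preincubated 15 min at room temperature with compound. Reaction started with 40 uM arachidonic acid, 30 min at room temperature. Hydroperoxide measured by Fe-xylenol orange, 573/405 nm absorbance ratio.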
% is scaled to controls: 0 for no effect and ±100 for the full control effect; potency is read from the fitted curve at half-maximal effect.

Amino acid sequences for entries named in this document (tags omitted). A change or cut given only in a name is not applied to a line headed by its entry.
UniProt P18054: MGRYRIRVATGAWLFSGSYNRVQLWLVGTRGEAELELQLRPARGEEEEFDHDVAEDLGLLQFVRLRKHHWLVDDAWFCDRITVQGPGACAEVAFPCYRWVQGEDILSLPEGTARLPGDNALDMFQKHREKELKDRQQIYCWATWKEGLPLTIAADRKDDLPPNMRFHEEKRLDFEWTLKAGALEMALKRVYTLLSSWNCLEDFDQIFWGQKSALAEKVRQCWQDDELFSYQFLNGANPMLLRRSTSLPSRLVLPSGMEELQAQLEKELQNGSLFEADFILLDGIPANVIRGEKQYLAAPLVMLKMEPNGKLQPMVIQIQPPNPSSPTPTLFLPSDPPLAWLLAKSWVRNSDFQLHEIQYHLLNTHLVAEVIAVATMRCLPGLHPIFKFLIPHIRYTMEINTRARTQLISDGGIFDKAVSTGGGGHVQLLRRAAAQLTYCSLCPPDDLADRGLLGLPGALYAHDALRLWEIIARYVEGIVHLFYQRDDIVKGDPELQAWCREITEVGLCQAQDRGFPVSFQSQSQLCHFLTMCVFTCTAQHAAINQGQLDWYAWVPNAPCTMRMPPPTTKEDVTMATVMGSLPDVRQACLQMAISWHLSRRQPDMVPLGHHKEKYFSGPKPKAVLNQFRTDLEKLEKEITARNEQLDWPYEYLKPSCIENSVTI

| Structure (SMILES) | activity change, negative = inhibition | Potency |
| --- | --- | --- |
| Cc1cccc(-c2cc3nc4c(c(N5CCCC(O)C5)n3n2)CCC4)c1 (stereo not drawn) | inactive: -5.77% |  |
| O=C(c1cc(F)cc(F)c1)N1CCC(CCc2ccc(O)cc2)CC1 |  | inconclusive: 79.4 µM [inhibitor, single point] |
| Cc1cc(C(F)F)n2ncc(C(=O)NCCc3ccc(Cl)cc3)c2n1 | inactive: -16.8% |  |
| Cn1cccc1/C=N/N1CCN(Cc2ccc(Cl)cc2)CC1 |  | inconclusive: 35.5 µM [inhibitor, partial curve, poor fit] |
| O=C(Cc1c[nH]c2ccccc12)N1CCC2(CC1)CC(OCC1CC1)CCO2 (stereo not drawn) | inactive: -2.06% |  |
| O=C(CCc1nc2ccccc2s1)NC1CC1 | inactive: 5.25% |  |
| CCc1nc(-c2c3n(c(=O)n(CC(=O)NCc4ccc(F)cc4)c2=O)CCCC3)no1 |  | inconclusive: 31.6 µM [inhibitor, single point] |
| CCOC(=O)C(=NCCOC)NNc1cc(Cl)ccc1Cl |  | inconclusive: 22.4 µM [inhibitor, partial curve, poor fit] |
| O=C(Nc1cc(-c2ccccc2)sc1C(=O)O)c1cccc(F)c1 |  | inconclusive: 112 µM [inhibitor, single point] |
| O=C(COc1ccccc1)NC1=NCCS1 |  | inconclusive: 35.5 µM [inhibitor, partial curve, poor fit] |
| CCCCCCn1c(SCC(=O)OC)nc2c1c(=O)[nH]c(=O)n2C |  | inconclusive: 79.4 µM [inhibitor, partial curve, poor fit] |
| N#CC1=C(N)Oc2c(oc(CO)cc2=O)C1c1ccsc1 (stereo not drawn) |  | inconclusive: 14.1 µM [inhibitor, partial curve, poor fit] |
| CC(NC(=O)CSc1ncnc2ccccc12)c1ccccc1 (stereo not drawn) | inactive: 37.5% |  |
| O=C(CNC(=O)c1ccc(F)cc1)c1ccccc1 |  | inconclusive: 141 µM [inhibitor, single point] |
| CC1(COc2ccccc2)COc2ccc(C(=O)NCc3cccs3)cc2N1 (stereo not drawn) |  | inconclusive: 112 µM [inhibitor, partial curve, poor fit] |
| CCc1ccccc1NC(=O)CN1CCN(CC(=O)NCc2ccc(Cl)cc2)CC1 |  | inconclusive: 89.1 µM [inhibitor, single point] |
| C/C(=N\Nc1nnc(-c2ccccc2)c(-c2ccccc2)n1)c1cccc([N+](=O)[O-])c1 | inactive: 4.51% |  |
| CCOc1ccc(C2C(C(=O)/C=C/c3ccco3)=C(O)C(=O)N2CCN2CCOCC2)cc1OC (stereo not drawn) |  | inconclusive: 31.6 µM [inhibitor, full curve, poor fit] |
| Cc1ccc(C2C(C(=O)c3cc4ccccc4o3)=C(O)C(=O)N2c2cc(C)on2)cc1 (stereo not drawn) |  | inconclusive: 50.1 µM [inhibitor, partial curve, poor fit] |
| Clc1ccc(C2=CC(c3ccco3)n3ncnc3N2)cc1 (stereo not drawn) |  | inconclusive: 2.24 µM [inhibitor, full curve, poor fit] |
| O=C(CSc1nnc2c(n1)[nH]c1ccccc12)NCc1ccco1 | inactive: -14.9% |  |
| COc1ccc(-n2c(CN3CCN(Cc4ccccc4)CC3)nc3ccc([N+](=O)[O-])cc3c2=O)c(OC)c1 | inactive: 3.96% |  |
| O=C(N[C@@H](Cn1cc(Cl)c(=O)[nH]c1=O)C(=O)O)C1CCCC1 |  | inconclusive: 22.4 µM [inhibitor, full curve] |

Exported with bars between the fields: part of the list above
Structure (SMILES) | activity change, negative = inhibition | Potency
Cn1cccc1/C=N/N1CCN(Cc2ccc(Cl)cc2)CC1 |  | inconclusive: 35.5 µM [inhibitor, partial curve, poor fit]
O=C(Cc1c[nH]c2ccccc12)N1CCC2(CC1)CC(OCC1CC1)CCO2 (stereo not drawn) | inactive: -2.06% | 
O=C(CCc1nc2ccccc2s1)NC1CC1 | inactive: 5.25% | 
CCc1nc(-c2c3n(c(=O)n(CC(=O)NCc4ccc(F)cc4)c2=O)CCCC3)no1 |  | inconclusive: 31.6 µM [inhibitor, single point]
CCOC(=O)C(=NCCOC)NNc1cc(Cl)ccc1Cl |  | inconclusive: 22.4 µM [inhibitor, partial curve, poor fit]
O=C(Nc1cc(-c2ccccc2)sc1C(=O)O)c1cccc(F)c1 |  | inconclusive: 112 µM [inhibitor, single point]
O=C(COc1ccccc1)NC1=NCCS1 |  | inconclusive: 35.5 µM [inhibitor, partial curve, poor fit]
CCCCCCn1c(SCC(=O)OC)nc2c1c(=O)[nH]c(=O)n2C |  | inconclusive: 79.4 µM [inhibitor, partial curve, poor fit]
N#CC1=C(N)Oc2c(oc(CO)cc2=O)C1c1ccsc1 (stereo not drawn) |  | inconclusive: 14.1 µM [inhibitor, partial curve, poor fit]
CC(NC(=O)CSc1ncnc2ccccc12)c1ccccc1 (stereo not drawn) | inactive: 37.5% | 
O=C(CNC(=O)c1ccc(F)cc1)c1ccccc1 |  | inconclusive: 141 µM [inhibitor, single point]
CC1(COc2ccccc2)COc2ccc(C(=O)NCc3cccs3)cc2N1 (stereo not drawn) |  | inconclusive: 112 µM [inhibitor, partial curve, poor fit]
CCc1ccccc1NC(=O)CN1CCN(CC(=O)NCc2ccc(Cl)cc2)CC1 |  | inconclusive: 89.1 µM [inhibitor, single point]
C/C(=N\Nc1nnc(-c2ccccc2)c(-c2ccccc2)n1)c1cccc([N+](=O)[O-])c1 | inactive: 4.51% | 
CCOc1ccc(C2C(C(=O)/C=C/c3ccco3)=C(O)C(=O)N2CCN2CCOCC2)cc1OC (stereo not drawn) |  | inconclusive: 31.6 µM [inhibitor, full curve, poor fit]
Cc1ccc(C2C(C(=O)c3cc4ccccc4o3)=C(O)C(=O)N2c2cc(C)on2)cc1 (stereo not drawn) |  | inconclusive: 50.1 µM [inhibitor, partial curve, poor fit]
Clc1ccc(C2=CC(c3ccco3)n3ncnc3N2)cc1 (stereo not drawn) |  | inconclusive: 2.24 µM [inhibitor, full curve, poor fit]
O=C(CSc1nnc2c(n1)[nH]c1ccccc12)NCc1ccco1 | inactive: -14.9% | 
COc1ccc(-n2c(CN3CCN(Cc4ccccc4)CC3)nc3ccc([N+](=O)[O-])cc3c2=O)c(OC)c1 | inactive: 3.96% | 
O=C(N[C@@H](Cn1cc(Cl)c(=O)[nH]c1=O)C(=O)O)C1CCCC1 |  | inconclusive: 22.4 µM [inhibitor, full curve]

The list continues:

| Structure (SMILES) | activity change, negative = inhibition | Potency |
| --- | --- | --- |
| O=C1c2cccc3c(N4CCCCC4)ccc(c23)C(=O)N1CCO |  | inconclusive: 100 µM [inhibitor, single point] |
| COc1cccc(C(=O)N(Cc2nc(-c3cccc(C)c3)no2)C(C)C)c1OC |  | inconclusive: 100 µM [inhibitor, partial curve, poor fit] |
| COc1cccc(C(=O)N2CCN(C(=O)c3cn(C)c4ccccc34)CC2)c1 |  | inconclusive: 10 µM [inhibitor, partial curve, poor fit] |
| O=C1Cc2cc(S(=O)(=O)NCc3ccco3)cc3c2N1CCC3 |  | inconclusive: 44.7 µM [inhibitor, partial curve, poor fit] |
| Nc1ccc(S(=O)(=O)NN=Cc2ccccc2[N+](=O)[O-])cc1 |  | inconclusive: 6.31 µM [inhibitor, full curve, poor fit] |
| CC(C)c1ccccc1NC(=O)c1cnccn1 | inactive: 1.29% |  |
| CC(C)C/C(=N\NC(=O)C1CC1c1ccccc1)c1ccccc1 (stereo not drawn) | inactive: 10.3% |  |
| COC(=O)c1cc(Nc2nc3ccccc3nc2NS(=O)(=O)c2ccc(C)cc2)ccc1Cl |  | inconclusive: 28.2 µM [inhibitor, full curve, poor fit] |
| O=C(Cc1n[nH]c(=O)[nH]c1=O)N/N=C/c1cccc(Cl)c1 | inactive: 3.27% |  |
| O=C1Nc2ccccc2CC12CCN([S+](=O)([O-])c1cccs1)C2 (stereo not drawn) | inactive: 53.2% |  |
| COc1cncc([C@@H](NC(=O)Cc2cn3ccsc3n2)C2CC(O)C2)c1 (stereo partly drawn) |  | inconclusive: 50.1 µM [inhibitor, partial curve] |
| CC(C)c1noc(CCNC(=O)[C@H]2CNC[C@H](C(=O)N3CCOCC3)C2)n1 | inactive: 55.3% |  |
| CCOc1ccc(-n2c(=S)sc3c(=O)[nH]c(SCC(=O)NCc4ccco4)nc32)cc1 |  | inconclusive: 44.7 µM [inhibitor, partial curve, poor fit] |
| Cc1ccc(S(=O)(=O)N2CCC(C(=O)N3CCN(Cc4ccccc4)CC3)CC2)cc1 |  | inconclusive: 31.6 µM [inhibitor, partial curve, poor fit] |
| Nc1[nH]c(C(=O)c2ccccc2)c(-c2cccc3ccccc23)c1C(=O)NCc1ccc(F)c(F)c1 | inactive: -8.3% |  |
| COc1ccc(C(=O)Cn2c(NCCCO)nc3ccccc32)cc1OC |  | inconclusive: 22.4 µM [inhibitor, single point] |
| CN(CC(=O)NC1CCCCNC1=O)Cc1ccccc1Cl (stereo not drawn) | inactive: -6.86% |  |
| Cc1ccc(C(=O)N(Cc2ccncc2)C2CC2)cc1 |  | inconclusive: 39.8 µM [inhibitor, single point] |
| O=C(NC1CCC1)c1ccc2c(c1)C1(CCN(CC3CC3)C1)CN2Cc1ccccc1 (stereo not drawn) | inactive: 32.7% [at 176 µM] |  |
| COC(=O)c1ccc(C)c(NC(=S)NCc2ccc(Cl)cc2)c1 | inactive: -17.4% |  |
| CCOC(=O)c1cc(NC(=O)c2ccccc2)ccc1N1CCOCC1 | inactive: -2.95% |  |
| O=C(Cc1cccs1)NC1CCCC(C(F)(F)F)C1 (stereo not drawn) | inactive: -18.2% |  |
| C=C(C)C1CC=C(C)/C(=N/NC(N)=S)C1 (stereo not drawn) | inactive: -30.7% |  |

| Structure (SMILES) | activity change, negative = inhibition | Potency |
| --- | --- | --- |
| COC(=O)C1=C2SC(C)C(=O)N2C(N)=C(C#N)C1c1cc(OC)c(OC)c(OC)c1 (stereo not drawn) |  | inconclusive: 31.6 µM [inhibitor, partial curve, poor fit] |
| COc1ccc(N=Cc2c(O)ccc3ccccc23)cc1 |  | inconclusive: 89.1 µM [inhibitor, single point] |
| CCN(CC)S(=O)(=O)c1cc(NC(=S)Nc2ccccc2F)ccc1C |  | inconclusive: 158 µM [inhibitor, single point] |
| C=CCn1c(SCc2ccccc2)nc2c1c(=O)[nH]c(=O)n2C |  | inconclusive: 28.2 µM [inhibitor, partial curve, poor fit] |
| O=C(O)C[C@@H]1CCN(C(=O)C2CC2)C[C@@H]1CCN1CCN(c2ccccc2)CC1 |  | inconclusive: 17.8 µM [inhibitor, full curve, poor fit] |
| CC(CNC(=O)c1cc2ccccc2o1)N1CCCC1 (stereo not drawn) |  | inconclusive: 5.01 µM [inhibitor, full curve] |
| COC(=O)c1cc(CN2C(=O)c3ccccc3C2=O)c(O)c([N+](=O)[O-])c1 |  | inconclusive: 39.8 µM [inhibitor, partial curve, poor fit] |
| CC(=O)N1CCN(c2ccc(NCc3ccco3)cc2)CC1 |  | inconclusive: 56.2 µM [inhibitor, partial curve, poor fit] |
| OC(COCC1COc2ccccc2O1)CN1CCN(c2ccccn2)CC1 (stereo not drawn) |  | inconclusive: 44.7 µM [inhibitor, partial curve, poor fit] |
| CC(=O)N1CCC(C(=O)NC(c2cccs2)C(C)C)CC1 (stereo not drawn) | inactive: -21.2% |  |
| CN1CCN(Cc2nc3ccccc3c(=O)n2Cc2nc(-c3ccc([N+](=O)[O-])cc3)cs2)CC1 |  | active: 44.7 µM |
| CC1=C(C(=O)N2CCOCC2)C(c2ccc(-c3ccccc3)cc2)NC(=S)N1 (stereo not drawn) |  | inconclusive: 44.7 µM [inhibitor, partial curve, poor fit] |
| S=C(c1ccc(-c2cccc(Cl)c2)o1)N1CCCCC1 |  | inconclusive: 44.7 µM [inhibitor, partial curve] |
| COc1ccc(CC2(CO)CCN(Cc3cnn(-c4ccccc4)c3)CC2)cc1 |  | inconclusive: 44.7 µM [inhibitor, partial curve, poor fit] |
| COc1ccc(Cc2nc3c4c(C)c(C)n(CCO)c4ncn3n2)cc1OC | inactive: 4.88% |  |
| CSc1nncc(/C(C)=N\Nc2ccccc2)n1 |  | inconclusive: 50.1 µM [inhibitor, partial curve, poor fit] |
| CCOc1cc(C2C3=C(CCCC3=O)N(C)C3=C2C(=O)CCC3)cc(Cl)c1O |  | inconclusive: 50.1 µM [inhibitor, partial curve, poor fit] |
| CCOC(=O)Cc1csc(NC(=O)c2cccc(Cl)c2)n1 |  | inconclusive: 39.8 µM [inhibitor, partial curve, poor fit] |
| COC(=O)c1ccc2c(c1)C(C)(C)C(/C=C/c1ccc(OC)c(OC)c1OC)=[N+]2C |  | active: 2.51 µM |
| COc1cc2c(cc1OC)C1=NC(=O)CN1C(SCc1ccccc1)=N2 |  | inconclusive: 4.47 µM [inhibitor, full curve, poor fit] |
| O=c1cc(-c2ccccc2)c2ccc3c(c2o1)CN(Cc1cccc(Cl)c1)CO3 |  | inconclusive: 50.1 µM [inhibitor, partial curve, poor fit] |
| c1ccc2nc3c(cc2c1)CCCCCC3 | inactive: 0% |  |

From PubChem BioAssay AID1671190 (National Center for Advancing Translational Sciences (NCATS), 2021)
